Reference: publication PMC9463140
These are yes or no findings as the source states them, for the method shown. Some binding calls cover weakened binding; strength is not graded here.

By UniProt entry, the sequences of proteins in these tests, tags left out. Where a name states a change or a piece, a line headed by the entry shows the natural chain unless it says otherwise. Chains listed by the source or under a name are the forms on record and can include a tag or linker.
rat non-gastric H+,K+-ATPase α subunit Lys794Ser (P54708, form named): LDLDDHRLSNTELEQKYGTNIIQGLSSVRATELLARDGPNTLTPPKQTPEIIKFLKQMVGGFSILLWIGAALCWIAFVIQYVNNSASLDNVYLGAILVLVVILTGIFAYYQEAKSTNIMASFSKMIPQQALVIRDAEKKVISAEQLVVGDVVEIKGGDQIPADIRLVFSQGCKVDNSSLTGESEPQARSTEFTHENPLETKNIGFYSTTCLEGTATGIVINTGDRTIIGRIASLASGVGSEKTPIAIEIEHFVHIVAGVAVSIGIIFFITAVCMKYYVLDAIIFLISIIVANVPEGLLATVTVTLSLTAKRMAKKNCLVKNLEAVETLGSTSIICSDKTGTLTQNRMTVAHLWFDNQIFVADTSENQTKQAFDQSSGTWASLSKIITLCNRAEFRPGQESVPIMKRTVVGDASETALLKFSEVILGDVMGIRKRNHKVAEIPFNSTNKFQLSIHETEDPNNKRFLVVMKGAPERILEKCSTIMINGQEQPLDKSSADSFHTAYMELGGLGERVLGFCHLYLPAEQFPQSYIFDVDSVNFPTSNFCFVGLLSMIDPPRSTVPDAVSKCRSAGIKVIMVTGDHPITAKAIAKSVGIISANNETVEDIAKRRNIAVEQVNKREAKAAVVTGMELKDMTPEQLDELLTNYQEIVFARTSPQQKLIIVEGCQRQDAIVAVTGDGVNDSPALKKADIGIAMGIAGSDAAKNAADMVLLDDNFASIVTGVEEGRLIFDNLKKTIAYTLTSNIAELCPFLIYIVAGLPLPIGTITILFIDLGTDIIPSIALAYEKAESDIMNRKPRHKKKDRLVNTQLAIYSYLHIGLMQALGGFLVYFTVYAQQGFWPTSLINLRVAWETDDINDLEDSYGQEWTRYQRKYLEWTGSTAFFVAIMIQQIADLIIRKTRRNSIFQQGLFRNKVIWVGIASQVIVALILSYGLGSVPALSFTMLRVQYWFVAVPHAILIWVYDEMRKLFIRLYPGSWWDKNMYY
rat non-gastric H+,K+-ATPase α subunit Lys794Ala (P54708, form named): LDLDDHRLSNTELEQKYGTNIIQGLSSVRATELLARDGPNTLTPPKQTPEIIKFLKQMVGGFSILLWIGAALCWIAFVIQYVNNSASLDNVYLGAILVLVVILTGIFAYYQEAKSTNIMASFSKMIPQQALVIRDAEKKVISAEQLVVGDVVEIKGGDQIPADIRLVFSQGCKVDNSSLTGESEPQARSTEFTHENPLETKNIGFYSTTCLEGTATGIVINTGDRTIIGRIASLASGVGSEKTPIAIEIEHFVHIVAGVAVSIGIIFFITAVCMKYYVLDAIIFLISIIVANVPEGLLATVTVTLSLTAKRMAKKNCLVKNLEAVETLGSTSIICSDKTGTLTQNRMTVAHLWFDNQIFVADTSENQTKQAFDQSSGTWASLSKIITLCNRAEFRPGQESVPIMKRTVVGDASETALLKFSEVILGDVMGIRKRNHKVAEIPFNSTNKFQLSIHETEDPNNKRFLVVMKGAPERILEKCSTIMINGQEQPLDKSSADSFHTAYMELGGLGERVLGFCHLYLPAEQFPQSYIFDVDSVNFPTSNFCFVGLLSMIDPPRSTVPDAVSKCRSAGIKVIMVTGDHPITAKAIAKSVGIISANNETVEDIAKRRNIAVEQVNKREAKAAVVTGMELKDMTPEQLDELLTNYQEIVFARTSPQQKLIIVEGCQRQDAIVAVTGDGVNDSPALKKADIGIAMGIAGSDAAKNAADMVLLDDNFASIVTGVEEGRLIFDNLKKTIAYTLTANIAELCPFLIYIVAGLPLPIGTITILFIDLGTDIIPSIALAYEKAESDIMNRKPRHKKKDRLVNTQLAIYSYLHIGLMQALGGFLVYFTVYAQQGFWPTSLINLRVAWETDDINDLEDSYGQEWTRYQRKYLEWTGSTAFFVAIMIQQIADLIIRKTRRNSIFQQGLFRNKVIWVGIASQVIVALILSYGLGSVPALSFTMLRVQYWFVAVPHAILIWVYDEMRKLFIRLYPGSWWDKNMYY
rat non-gastric H+,K+-ATPase α subunit SPWC mutant (Lys794Ser/Ala797Pro/Ile943Trp/Arg949Cys) (P54708, form named): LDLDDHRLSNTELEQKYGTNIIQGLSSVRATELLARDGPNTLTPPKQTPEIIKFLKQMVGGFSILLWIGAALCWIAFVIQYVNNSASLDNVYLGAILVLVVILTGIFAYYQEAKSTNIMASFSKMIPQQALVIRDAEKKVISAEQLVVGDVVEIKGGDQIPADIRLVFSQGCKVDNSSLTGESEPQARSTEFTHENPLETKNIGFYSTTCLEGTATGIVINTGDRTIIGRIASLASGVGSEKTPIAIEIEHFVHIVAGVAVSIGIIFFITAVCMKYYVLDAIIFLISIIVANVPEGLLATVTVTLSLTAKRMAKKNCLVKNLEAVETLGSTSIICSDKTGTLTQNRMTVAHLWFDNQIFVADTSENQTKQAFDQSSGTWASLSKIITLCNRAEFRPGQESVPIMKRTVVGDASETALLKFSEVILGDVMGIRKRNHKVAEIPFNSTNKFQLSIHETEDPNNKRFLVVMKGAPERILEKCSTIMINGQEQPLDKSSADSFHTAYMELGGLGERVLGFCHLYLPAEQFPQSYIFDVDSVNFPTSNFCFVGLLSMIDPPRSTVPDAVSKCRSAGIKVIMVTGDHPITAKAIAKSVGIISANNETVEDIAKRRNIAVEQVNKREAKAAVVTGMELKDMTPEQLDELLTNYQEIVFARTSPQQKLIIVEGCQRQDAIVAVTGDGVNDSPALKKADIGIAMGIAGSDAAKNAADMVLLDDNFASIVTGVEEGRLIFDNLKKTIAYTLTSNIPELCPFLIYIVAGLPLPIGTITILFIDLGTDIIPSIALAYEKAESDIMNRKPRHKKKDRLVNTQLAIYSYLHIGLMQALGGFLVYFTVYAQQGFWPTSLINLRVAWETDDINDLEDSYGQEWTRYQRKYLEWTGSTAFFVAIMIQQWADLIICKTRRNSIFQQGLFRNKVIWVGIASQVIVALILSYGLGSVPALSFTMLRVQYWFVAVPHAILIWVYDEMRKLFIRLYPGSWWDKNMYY
rat non-gastric H+,K+-ATPase (ngHKA) α subunit, wild type (P54708, form named): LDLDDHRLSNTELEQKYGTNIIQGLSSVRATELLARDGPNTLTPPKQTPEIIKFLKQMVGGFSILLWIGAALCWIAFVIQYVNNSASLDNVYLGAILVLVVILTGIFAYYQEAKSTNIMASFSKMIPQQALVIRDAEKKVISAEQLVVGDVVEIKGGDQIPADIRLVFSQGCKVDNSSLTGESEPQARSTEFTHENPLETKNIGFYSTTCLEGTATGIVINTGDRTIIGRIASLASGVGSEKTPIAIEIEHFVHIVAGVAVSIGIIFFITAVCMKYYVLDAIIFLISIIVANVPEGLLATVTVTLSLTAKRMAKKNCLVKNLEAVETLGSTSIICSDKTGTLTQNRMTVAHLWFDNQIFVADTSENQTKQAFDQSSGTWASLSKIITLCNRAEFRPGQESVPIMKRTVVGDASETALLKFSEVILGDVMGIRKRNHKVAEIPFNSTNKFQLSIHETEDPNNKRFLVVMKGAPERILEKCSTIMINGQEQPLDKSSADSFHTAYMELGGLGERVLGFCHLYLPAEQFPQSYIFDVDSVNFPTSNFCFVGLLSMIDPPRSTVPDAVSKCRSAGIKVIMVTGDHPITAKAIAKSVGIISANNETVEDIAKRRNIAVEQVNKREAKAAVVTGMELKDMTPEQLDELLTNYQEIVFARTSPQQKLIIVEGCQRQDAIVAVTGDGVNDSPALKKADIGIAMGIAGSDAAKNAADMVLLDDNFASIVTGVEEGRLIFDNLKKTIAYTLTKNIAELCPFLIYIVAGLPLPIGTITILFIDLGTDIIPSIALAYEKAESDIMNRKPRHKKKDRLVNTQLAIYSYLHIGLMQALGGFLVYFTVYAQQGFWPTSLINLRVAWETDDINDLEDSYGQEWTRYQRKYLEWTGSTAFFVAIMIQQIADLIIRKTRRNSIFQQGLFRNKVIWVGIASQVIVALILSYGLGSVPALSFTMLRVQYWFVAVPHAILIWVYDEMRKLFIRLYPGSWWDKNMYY

Tests used:
[1] = biological target: rat non-gastric H+,K+-ATPase α subunit Lys794Ser (rat) (UniProt P54708); assay: cryo-EM structure; αβ complex co-expressed and purified together in GDN; 100 mM KCl, 1 mM AlCl3, 4 mM NaF, pH 6.5; (K+)E2-Pi state; both purified
[2] = biological target: rat non-gastric H+,K+-ATPase α subunit Lys794Ala (rat) (UniProt P54708); assay: as above
[3] = biological target: rat non-gastric H+,K+-ATPase α subunit SPWC mutant (Lys794Ser/Ala797Pro/Ile943Trp/Arg949Cys) (rat) (UniProt P54708); assay: as above
[4] = biological target: rat non-gastric H+,K+-ATPase (ngHKA) α subunit, wild type (rat) (UniProt P54708); assay: crystal structure; αβ complex co-expressed and purified together, lipidated with dioleoyl phosphatidylcholine; vapor diffusion at 20 °C; K+ (or Rb+) and AlF4, (K+)E2-Pi state; both purified
[5] = biological target: rat non-gastric H+,K+-ATPase α subunit SPWC mutant (Lys794Ser/Ala797Pro/Ile943Trp/Arg949Cys) (rat) (UniProt P54708); assay: cryo-EM structure; αβ complex co-expressed and purified together in GDN; 300 mM NaCl, 5 mM AMPPCP, pH 6.5; 3Na+·E1-ATP state; both purified

Measured: binding

rat Na+,K+-ATPase (NKA) β1 subunit, wild type (from UniProt P07340 1-304)
binds: all assays above
